Laboratory results reported in PMC7179419 (Molecules, 2020).

Key:
[1] = test system: human lung adenocarcinoma (A549); experiment: cells; assay type: cell-based; settings: A549, 72 h, read-out: A549 IC50
Description: (§1) For a more accurate evaluation of cytotoxic activity, the effect on normal murine embryonic fibroblast cell line (BALB/3T3) was also tested according to the previously published procedure. Detailed information concerning antiproliferation assay can be found in Supplementary Materials. […]
(§2) The antiproliferative activity
(§3) Four human cancer cell lines and one murine normal cell line were used to evaluate […]
(§4) (A549), human breast adenocarcinoma (MCF-7), human colon adenocarcinoma cell lines sensitive and resistant to doxorubicin (LoVo), respectively, and normal murine embryonic fibroblast cell line (BALB/3T3). The BALB/3T3 cell line was purchased from the American Type Culture Collection (ATCC, Manassas, VA, USA), A549 and MCF-7 cell lines—from European Collection of Authenticated Cell Cultures (Salisbury, UK), LoVo cell line was purchased from the ATCC (ATCC, Manassas, VA, USA). All the cell lines are maintained in the Institute of Immunology and Experimental Therapy (IIET), Wroclaw, Poland. Human lung adenocarcinoma cell line was cultured in mixture of OptiMEM and RPMI 1640 (1:1) medium (IIET, Wroclaw, Poland), supplemented with 5% fetal bovine serum (GE Healthcare, Logan, UT, USA) and 2 mM L-glutamine (Sigma-Aldrich, Merck KGaA, Saint Louis, MO, USA). […]

[2] = test system: normal murine embryonic fibroblast cell line (BALB/3T3); experiment: Antiproliferative assay in vitro (SRB, 72 h), BALB/3T3 normal cells; assay type: cell-based; settings: Mus musculus, normal cell line BALB/3T3, 72 h, mean ± SD
Description: as §1, §2, §3, §4

## COc1cc2c(c(OC)c1OC)-c1ccc(OC)c(=O)cc1[C@@H](NC(C)=O)CC2 [colchicine, reference compound]
[1]
  IC50: 0.07 ± 0.01 µM
[2]
  IC50: 0.04 ± 0.01 µM
